{"sequences": {"note": "Amino acid sequences for entries named in this document (tags omitted).", "UniProt P11413": "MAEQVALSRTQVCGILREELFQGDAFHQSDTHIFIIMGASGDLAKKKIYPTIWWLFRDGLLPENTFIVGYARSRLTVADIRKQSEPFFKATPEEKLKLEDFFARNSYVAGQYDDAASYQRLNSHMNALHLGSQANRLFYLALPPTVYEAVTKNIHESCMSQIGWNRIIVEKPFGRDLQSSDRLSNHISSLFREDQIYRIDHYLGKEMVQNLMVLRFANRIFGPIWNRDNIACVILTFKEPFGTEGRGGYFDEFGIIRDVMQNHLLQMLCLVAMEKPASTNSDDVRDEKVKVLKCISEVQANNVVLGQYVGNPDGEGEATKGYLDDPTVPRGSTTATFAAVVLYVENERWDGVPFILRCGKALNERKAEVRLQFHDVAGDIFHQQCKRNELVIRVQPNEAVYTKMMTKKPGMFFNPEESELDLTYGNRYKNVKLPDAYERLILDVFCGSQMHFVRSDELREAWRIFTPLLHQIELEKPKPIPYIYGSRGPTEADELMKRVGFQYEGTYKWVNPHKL"}, "source": "paper PMC8016650", "molecular_target": "T1, Testes-specific protease 50 (TSP50) (human (endogenous in Huh7 and Bel7402)) (UniProt Q9UI38)", "T1 sequence": "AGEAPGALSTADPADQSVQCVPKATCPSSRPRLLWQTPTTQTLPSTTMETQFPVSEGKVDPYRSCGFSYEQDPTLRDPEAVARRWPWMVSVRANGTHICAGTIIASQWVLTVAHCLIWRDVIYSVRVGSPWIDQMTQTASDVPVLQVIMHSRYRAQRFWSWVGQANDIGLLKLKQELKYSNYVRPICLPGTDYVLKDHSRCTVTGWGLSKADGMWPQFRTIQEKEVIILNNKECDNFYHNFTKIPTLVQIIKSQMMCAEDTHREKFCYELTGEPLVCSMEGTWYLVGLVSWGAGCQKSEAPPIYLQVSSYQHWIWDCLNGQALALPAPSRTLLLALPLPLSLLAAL", "test": "affinity purification with mass spectrometry; Co-IP with anti-TSP50 antibody from Huh7 cells (Pierce cross-link immunoprecipitation kit), eluate analysed by LC-MS/MS; non-specific proteins removed", "note": "No constants are given. Whether binding was seen depends on the method and setting. Binding seen in cells or lysates may run through a third protein. A yes stands for co-enrichment or nearness to the bait. Other partners may have been found.", "data": [{"substance": "Glucose-6-phosphate dehydrogenase (G6PD) (from UniProt P11413 1-515) (enzyme)", "values": [{"measurement": "binding", "value": "binds"}]}]}
